From PMC5474747
Results are given in words; binding and its absence hold for the method and conditions named. In cells and extracts the contact can be indirect. Binding calls can cover weak binding; strength is not graded here. Where a sequence is shown, tags or fusion partners need not be part of it.

The chains behind the UniProt entries cited, without tags or fusion partners. Where a name states a change or a piece, a line headed by the entry shows the natural chain unless it says otherwise.
UniProt Q05930: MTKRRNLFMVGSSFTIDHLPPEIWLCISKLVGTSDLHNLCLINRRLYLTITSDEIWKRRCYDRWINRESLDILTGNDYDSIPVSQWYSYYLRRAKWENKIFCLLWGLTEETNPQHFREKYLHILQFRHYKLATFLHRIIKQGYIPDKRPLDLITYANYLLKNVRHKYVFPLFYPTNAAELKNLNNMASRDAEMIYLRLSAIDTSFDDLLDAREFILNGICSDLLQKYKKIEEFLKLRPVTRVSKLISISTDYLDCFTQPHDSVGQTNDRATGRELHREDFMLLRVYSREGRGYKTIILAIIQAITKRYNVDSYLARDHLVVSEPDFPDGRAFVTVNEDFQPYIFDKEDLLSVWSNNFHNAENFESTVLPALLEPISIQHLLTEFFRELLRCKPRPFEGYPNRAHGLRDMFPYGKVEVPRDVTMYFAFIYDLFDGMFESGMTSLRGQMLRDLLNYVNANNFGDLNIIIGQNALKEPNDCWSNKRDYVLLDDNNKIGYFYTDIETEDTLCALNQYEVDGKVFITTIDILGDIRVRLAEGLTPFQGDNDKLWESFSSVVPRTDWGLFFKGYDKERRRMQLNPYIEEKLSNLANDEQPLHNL

Target: F-box mutant of Mdm30-Myc (S. cerevisiae) (UniProt Q05930)
Assay: co-IP; lysates of ubp2Δ mdm30Δ yeast co-expressing Ubp2-HA and Mdm30-Myc (WT or F-box mutant); anti-Myc (9E10) or mock on protein G-Sepharose, 2 h at 4 °C; IP buffer 100 mM Tris pH 7.5, 100 mM NaCl, 0.6% Triton X-100, 10% glycerol; anti-HA immunoblot; also done in the presence or absence of Rup1

B1: Ubp2 tagged with six HA C-terminal epitopes (Ubp2-HA) (enzyme, UniProt Q01476 1-1272)
chain: MPNEDNELQKAIENHHNQLLNQDKENADRNGSVIEDLPLYGTSINQQSTPGDVDDGKHLLYPDIATNLPLKTSDRLLDDILCDTIFLNSTDPKVMQKGLQSRGILKESMLSYSTFRSSIRPNCLGSLTDQVVFQTKSEYDSISCPKYNKIHVFQAVIFNPSLAEQQISTFDDIVKIPIYHLKVSVKVRQELERLKKHVGVTQFHSLDHLHEYDRVDLSTFDSSDPNLLDYGIYVSDDTNKLILIEIFKPEFNSPEEHESFTADAIKKRYNAMCVKNESLDKSETPSQVDCFYTLFKIFKGPLTRKSKAEPTKTIDSGNLALNTHLNPEWLTSKYGFQASSEIDEETNEIFTEYVPPDMVDYVNDLETRKIRESFVRKCLQLIFWGQLSTSLLAPNSPLKNTKSVKGMSSLQTSFSTLPWFHLLGESRARILLNSNEQTHSPLDAEPHFINLSVSHYYTDRDIIRNYESLSSLDPENIGLYFDALTYIANRKGAYQLIAYCGKQDIIGQEALENALLMFKINPKECNISELNEATLLSIYKYETSNKSQVTSNHLTNLKNALRLLAKYTKSDKLKFYVDHEPYRALSQAYDTLSIDESVDEDIIKTAYSVKINDSPGLKLDCDRALYTIAISKRSLDLFNFLTEECPQFSNYYGPEKLDYQEALKLLQVNENASDETILKIFKQKWFDENVYEPDQFLILRAALTKISIERNSTLITNFLLTGTIDPNSLPPENWPTGINNIGNTCYLNSLLQYYFSIAPLRRYVLEYQKTVENFNDHLSNSGHIRRIGGREISRGEVERSIQFIYQLRNLFYAMVHTRERCVTPSKELAYLAFAPSNVEVEFEVEGNKVVDQTGVLSDSKKETTDDAFTTKIKDTSLIDLEMEDGLNGDVGTDANRKKNESNDAEVSENEDTTGLTSPTRVAKISSDQLENALEMGRQQDVTECIGNVLFQIESGSEPIRYDEDNEQYDLVKQLFYGTTKQSIVPLSATNKVRTKVERFLSLLINIGDHPKDIYDAFDSYFKDEYLTMEEYGDVIRTVAVTTFPTILQVQIQRVYYDRERLMPFKSIEPLPFKEVIYMDRYADTENPLLLAKKKETEEMKQKLKVMKNRQRELLSRDDSGLTRKDAFLESIKLLESDTIKKTPLKIEAANDVIKTLRNNVQNIDNELMKLYNDINSLEEKISHQFDDFKEYGYSLFSVFIHRGEASYGHYWIYIKDRNRNGIWRKYNDETISEVQEEEVFNFNEGNTATPYFLVYVKQGQEGDIEPLKRILK
  binding: binds
